# Among all 31,000 sequences or so, about 1,400 (4.5%) were called active.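 Rule for the calls: active = median seed-adjusted z-score above 1 or below -1; inactive = the rest.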 Some of the results follow.
# Experiment: Novel Modifiers of Survival Motor Neuron (SMN) Protein: Gene Identification via Genome-wide siRNA Screen;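 note: luminescence tracks full-length SMN protein made from the SMN2 reporter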
# Conditions: HEK293T SMN2-luciferase reporter, siRNA knockdown, 72 h; actives lie on both sides
# Method in brief: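 HEK293T cells stably expressing an SMN2 splicing/cDNA-luciferase reporter were reverse-transfected with a druggable-genome siRNA library and read by luminescence at 72 hours; hits defined by MAD score above 1.0 or below -1.0.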
row,Sequence,median seed-adjusted z-score
1,GGACGUAUUAUCACAAUAATT against CDH5,inactive: -0.557
2,GCCUCCAUCUUAUCUAUGATT against PCDHGA4,inactive: 0.0698
3,GCAACCAAGAAGACGAAGATT against RASGRF2,inactive: -0.225
4,CGGUCUACAUGAUCAAAUATT against FZD2,inactive: -0.0134
5,GAGUGGUAAUGGAAGUGAATT against PHF14,inactive: 0.354
6,GCUUGGAAAGGGUGCCUUUTT against HSFX1,inactive: 0.0575
7,CCUCCAUACGAGUCAAUCATT against LATS1,inactive: 0
8,ACAUCUAUAGAGACACUUUTT against SLC6A7,inactive: 0.00508
9,GAGUCAGGACAAGAAGAUUTT against PHPT1,active: 1.27
10,GUAUGACCUAAAAACCGAATT against MTRR,inactive: -0.381
11,GGACAACAAAUAUCAAGAATT against ING2,inactive: 0.126
12,GGAUGUUUUUCGAAGGAUATT against RHEB,inactive: -0.387
13,GGUGAAACACGGUGACGGATT against HPD,inactive: -0.126
14,CCCGUUUACUUGAGCAAGATT against GUSB,inactive: -0.542
15,GGACUGACUGUAAGUUUAATT against PTRH2,inactive: 0.0467
16,GAAGGGCAGUGACUCGACATT against SPDEF,inactive: -0.607
17,AGCAAAUGGUGUGAGCAAATT against ELOVL4,inactive: 0.166
18,ACUAUGUGAUGCGCAUGAATT against NDUFB7,inactive: -0.379
19,CGGGCAUUGCCACCAAAGATT against DUX5,inactive: -0.295
20,GGCUACCAUGGUUCAGAUATT against ARSI,inactive: 0
21,CACUAUAUCUAUAUCGAAATT against PLD1,inactive: 0.518
22,GGUGAUUCGUGUCAUCUGUTT against SLC4A11,inactive: -0.18
23,GGCCUAUUUCCAAACCGAUTT against RICS,inactive: 0.665
24,GGCUCAUCCUCAAUUCUUATT against ZSCAN18,inactive: 0.125
25,GCUUAAAACUUUUCAAUAATT against CXCR3,inactive: 0.693
26,AGUCAUGCGACAUUGGUUATT against PGLYRP4,inactive: 0.13
27,CGAGGUCGUUUACAAGUCATT against SLC1A7,inactive: -0.781

row,Sequence,median seed-adjusted z-score
1,CUGUGAAUAUGAAAGGAGATT against NOM1,inactive: 0.00828
2,GCUGGAUAAUACAACUGCATT against EEA1,inactive: 0.0278
3,CAAGCUAAAGAAGACCAUATT against ARID3B,inactive: -0.0846
4,GGAAGGGAUUAAAAACCAATT against APOBEC3C,inactive: -0.103
5,AGUCAACAGCUAAAACCUUTT against ICAM1,inactive: 0.345
6,UCUUCUACACCAACCUUUATT against P2RY2,inactive: 0.119
7,GGCCUGAUGUUGAGCAGUUTT against SLC16A9,inactive: 0.125
8,GAUACAAGAUCAAUAUACATT against OXTR,inactive: -0.557
9,GGGAUGGAUUUUCACCGAUTT against CAMK2D,inactive: 0.0676
10,GCAUGUAGAUGGUUGUGCATT against CNOT6L,inactive: -0.0259
11,GAUGCUAACCUGUACGUCATT against ELAVL3,inactive: -0.151
12,UGAUGACACCAAUCUCAAATT against TSSK4,inactive: -0.162
13,GCCUCUUGUUCGAGAAUAATT against HSD11B1L,inactive: -0.00448
14,GCAUCGACAUAGGCGAUGATT against ABCC11,inactive: 0.322
15,CCCAUGAUGUGAAGCCUUUTT against TEAD4,inactive: 0.0908
16,CCAAGAUACUUAGACUGCATT against GAS6,inactive: -0.493
17,CUGGAUCCUUUAUUACGAATT against NF1,inactive: -0.36
18,GCACCUAUGCAGCUCUUCATT against FBLIM1,inactive: 0.0604
19,GAAUUGUCAGAUUUCGCUUTT against MTMR10,inactive: 0.144
20,GGCUUUUCUUCAAUAUAGATT against DCT,inactive: -0.184
21,CCAACUUCACCACAAGGCATT against HOXB1,inactive: -0.0455
22,GGAUAUAGCUGGUGACCCATT against PCDH7,inactive: 0.192
23,GCGUAGACAAUGUUACUAATT against RBM16,inactive: 0.279
24,GUAUAUCAAGCAUUCAAAUTT against SUCLG2,inactive: -0.619
25,CCGUCGCACAAAUCUCGAATT against IDH3G,inactive: -0.426
26,GCAAGAAUCCCUAAAGCAUTT against BAG2,inactive: -0.87
27,GGACACGAUCAACAAAUUATT against NEFL,inactive: 0.305

# Already shown: an excerpt of the list.
row,Sequence,median seed-adjusted z-score
13,GCCUCUUGUUCGAGAAUAATT against HSD11B1L,inactive: -0.00448
14,GCAUCGACAUAGGCGAUGATT against ABCC11,inactive: 0.322

# From PubChem BioAssay AID1347426 (Functional Genomics Laboratory (NCATS/FGL), 2020)
